From PubChem BioAssay AID248 (DTP/NCI, 2004)
The list shows only some results of the screen, not a fair sample: it gathers tests that were run many times, whatever their T/C, doses with no T/C, and many T/C values between a quarter and a half above the control. Other doses and runs of a compound stand elsewhere. T/C is the treated group as % of the vehicle group. Some doses have a count of surviving animals in place of a T/C: the source files T/C as zero there, which appears to mark a toxic dose or a test without result, not a measured value. Some doses without a T/C left all or most animals alive at the check, yet need not have been tolerated: survival well below the control is almost never listed, so the zero probably covers shortened survival too. Counts of survivors are from the toxicity check (mostly the fifth day) where no day follows; animals may have died later. Schedules are NCI's codes, taken here to give the interval after Q, in days (D) or hours (H), and the number of doses after X. For survival time, the PubChem record calls one and a half times the control and up active, and a quarter to a half above the control has no call in these data; cut-offs in other NCI protocols can differ.

Test system: L1210 leukemia ip in BDF1 mice, survival T/C
Test: NCI In Vivo Anticancer Drug Screen. Data for tumor model L1210 Leukemia (intraperitoneal) in B6D2F1 (BDF1) mice
Conditions: T/C endpoint: mean survival time, higher T/C = longer survival
[1] = dose: 200.0 mg/kg/injection, schedule: Q04DX003 (ip), vehicle: saline with Tween-80
[2] = dose: 400.0 mg/kg/injection, schedule: Q04DX003 (ip), vehicle: saline
[3] = dose: 400.0 mg/kg/injection, schedule: Q01DX009 (ip), vehicle: saline with Tween-80
[4] = dose: 100.0 mg/kg/injection, schedule: Q01DX001 (ip), vehicle: saline
[5] = dose: 400.0 mg/kg/injection, schedule: Q04DX003 (ip), vehicle: saline with Tween-80
[6] = dose: 100.0 mg/kg/injection, schedule: Q01DX009 (ip), vehicle: saline with Tween-80
[7] = dose: 50.0 mg/kg/injection, schedule: Q04DX003 (ip), vehicle: saline with Tween-80
[8] = dose: 100.0 mg/kg/injection, schedule: Q04DX003 (ip), vehicle: saline with Tween-80

SMILES: c1ccc(-c2oc(-c3ccccc3)c(-c3ccccc3)c2-c2ccccc2)cc1
- survivor count [1]: 3 of 3

SMILES: O=C1CCCc2ccc([N+](=O)[O-])cc21
- survivor count [2]: 5 of 6

SMILES: Cc1c(Cl)cccc1NS(=O)(=O)c1cccc([N+](=O)[O-])c1
- survivor count [3]: 6 of 6

SMILES: CC(C)(C)C1CCCC(=O)CC1 (stereo not given)
- survivor count [4]: 2 of 4
- survivor count (dose: 200.0 mg/kg/injection, schedule: Q01DX001 (ip), vehicle: saline): 0 of 4
- survivor count (dose: 400.0 mg/kg/injection, schedule: Q01DX001 (ip), vehicle: saline): 0 of 4

SMILES: COc1ccc(CCC2(C=O)CNCN2)cc1 (stereo not given)
- survivor count (dose: 400.0 mg/kg/injection, schedule: Q01DX001 (ip), vehicle: other): 4 of 4

SMILES: CN(C)C1c2cccn2-c2ccccc2S(=O)(=O)C1c1ccccc1[N+](=O)[O-] (stereo not given)
- survivor count (dose: 100.0 mg/kg/injection, schedule: Q04DX003 (ip), vehicle: Klucel (hydroxypropylcellulose) (HPC)): 6 of 6

SMILES: C[N+](C)(C)c1ncnc2[n-]cnc12
- T/C (dose: 100.0 mg/kg/injection, schedule: Q01DX015 (ip), vehicle: saline): 125 % of control
- survivor count (dose: 200.0 mg/kg/injection, schedule: Q01DX015 (ip), vehicle: saline): 3 of 6
- survivor count (dose: 400.0 mg/kg/injection, schedule: Q01DX015 (ip), vehicle: saline): 0 of 6

SMILES: C[P+](c1ccc(Cl)cc1)(c1ccc(Cl)cc1)c1ccc(Cl)cc1
- survivor count (dose: 100.0 mg/kg/injection, schedule: Q04DX003 (ip), vehicle: saline): 1 of 6
- survivor count (dose: 200.0 mg/kg/injection, schedule: Q04DX003 (ip), vehicle: saline): 0 of 6
- survivor count [2]: 0 of 6

SMILES: O=C(OC1CCC/C=C\CCCC1)c1ccc(Cl)cc1 (stereo not given)
- survivor count [4]: 6 of 6

SMILES: CCCN(CCC)CCCC#N
- survivor count [5]: 0 of 6

SMILES: CC(=O)Nc1nc2ncc(CCN(C)c3ccc(C(=O)O)cc3)nc2c(=O)[nH]1
- survivor count (dose: 300.0 mg/kg/injection, schedule: Q01DX001 (ip), vehicle: saline): 4 of 6

SMILES: CCN(CC)CCCC(C)Nc1cc(C)nc(Nc2nc3cc(Cl)c(Cl)cc3[nH]2)n1 (stereo not given)
- survivor count (dose: 20.0 mg/kg/injection, schedule: Q01DX009 (ip), vehicle: saline with Tween-80): 4 of 6

SMILES: O=C1CCC2(CCCCC2)N1
- survivor count [6]: 0 of 6
- survivor count (dose: 200.0 mg/kg/injection, schedule: Q01DX009 (ip), vehicle: saline with Tween-80): 0 of 6
- survivor count [3]: 0 of 6

SMILES: Cc1ccc(Cc2c(C=O)nc(N)[nH]c2=O)c2ccccc12
- survivor count (dose: 400.0 mg/kg/injection, schedule: Q04DX002 (ip), vehicle: Klucel (hydroxypropylcellulose) (HPC)): 1 of 3

SMILES: CC(=O)OC1C(C)OC(OC2C=C3CCC4C(CCC5(C)C(c6ccc(=O)oc6)CCC45O)C3(C)CC2)C(OC(C)=O)C1OC(C)=O (stereo not given)
- survivor count [7]: 3 of 6
- survivor count [8]: 2 of 6
- survivor count [1]: 1 of 6
- survivor count [5]: 0 of 6

SMILES: NS(=O)(=O)c1ccc(NC(=S)NC(=O)c2cccc([N+](=O)[O-])c2)cc1
- survivor count [1]: 6 of 6

SMILES: COc1ccc(C(C#N)N2CCOCC2)cc1 (stereo not given)
- survivor count (dose: 400.0 mg/kg/injection, schedule: Q04DX003 (ip), vehicle: Klucel (hydroxypropylcellulose) (HPC)): 0 of 6

SMILES: Cc1cc(OCc2nc(N)nc(N)c2-c2ccc(Cl)c(Cl)c2)ccc1NC(=O)c1ccc(S(=O)(=O)F)cc1
- survivor count (dose: 150.0 mg/kg/injection, schedule: Q01DX001 (ip), vehicle: saline with Tween-80): 6 of 6
- survivor count (dose: 300.0 mg/kg/injection, schedule: Q01DX001 (ip), vehicle: saline with Tween-80): 6 of 6

SMILES: O=C(Nc1nc(Cl)nc(Cl)n1)N1CCOCC1
- survivor count (dose: 50.0 mg/kg/injection, schedule: Q01DX009 (ip), vehicle: saline with Tween-80): 1 of 6
- survivor count [7]: 2 of 6
- survivor count [6]: 0 of 6
- survivor count [8]: 1 of 6
- survivor count [1]: 1 of 6
- survivor count [5]: 0 of 6

SMILES: COc1cc(NCc2ccccc2)ccc1NC(C)=O
- survivor count (dose: 60.0 mg/kg/injection, schedule: Q01DX001 (ip), vehicle: carboxymethylcellulose (CMC)): 1 of 6
- survivor count (dose: 150.0 mg/kg/injection, schedule: Q01DX001 (ip), vehicle: carboxymethylcellulose (CMC)): 2 of 6
- survivor count (dose: 300.0 mg/kg/injection, schedule: Q01DX001 (ip), vehicle: carboxymethylcellulose (CMC)): 0 of 6

SMILES: CCCCNC1=C(N2CC2)C(=O)C(NCCCC)=C(N2CC2)C1=O
- T/C (dose: 5.0 mg/kg/injection, schedule: Q01DX009 (ip), vehicle: saline): 130 % of control
- T/C (dose: 6.25 mg/kg/injection, schedule: Q04DX003 (ip), vehicle: Klucel (hydroxypropylcellulose) (HPC)): 129 % of control
- T/C (dose: 8.2 mg/kg/injection, schedule: Q04DX003 (ip), vehicle: Klucel (hydroxypropylcellulose) (HPC)): 125 % of control
- T/C (dose: 10.0 mg/kg/injection, schedule: Q01DX009 (ip), vehicle: saline): 136 % of control
- T/C (dose: 12.5 mg/kg/injection, schedule: Q04DX003 (ip), vehicle: Klucel (hydroxypropylcellulose) (HPC)): 144 % of control
- survivor count (dose: 25.0 mg/kg/injection, schedule: Q04DX003 (ip), vehicle: Klucel (hydroxypropylcellulose) (HPC)): 5 of 6
